The subject of the experiment is Salmonella enterica serovar Typhimurium SL1344. Nature of the experiment: bacterial growth OD600 after 18 h with compound and polymyxin B; higher = more bacterial growth (less inhibition). To be noted: 50 µM, Mueller-Hinton broth.

The structures appear in SMILES notation. Some of the results follow. Values are raw readings; no control value is given beside them.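 In the initial screen, polymyxin B was used at a concentration that permeabilizes Salmonella's outer membrane but not its inner membrane. Maximum growth was set by DMSO wells with or without polymyxin B. Since plates varied, data were ranked per plate, and compounds giving the lowest OD600 advanced as hits.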

`Cc1ccc2c(c1)CN(C(=O)c1ccc(F)c(F)c1)CC(C)O2` (configuration not stated): the “bacterial growth OD600” value (polymyxin B 0.75 µg/mL) came out at 0.692.

As to `COc1cccc([C@@H](C)NC(=O)CCc2nnc(Cc3cc(OC)ccc3OC)o2)c1`, for the setting “polymyxin B 1 µg/mL”, the “bacterial growth OD600” value worked out at 1.08.

For the compound `CC(C)(C)C(=O)Nc1ccnn1C1CCN(Cc2c[nH]nc2-c2ccccc2)CC1`, the “bacterial growth OD600” value (polymyxin B 1 µg/mL) came out at 0.991.

As for `COC(c1ccc2c(c1)CN(C(=O)c1cscn1)CCO2)C1CCCCC1` (configuration not stated), for the setting “polymyxin B 0.75 µg/mL”, the “bacterial growth OD600” value is 0.697.

With `Cc1ccc(CN2CCC(CN(C)Cc3cccc(F)c3)CC2)o1`, for the setting “polymyxin B 1 µg/mL”, the “bacterial growth OD600” value worked out at 0.812.

As to `CCOC(=O)C1(C/C=C/c2ccccc2)CCCN(Cc2cccnc2)C1` (configuration not stated), the “bacterial growth OD600” value (polymyxin B 1 µg/mL) amounted to 0.058.

`OCCC1CN(Cc2ccc(O)cc2)CCN1Cc1ccc(F)c(F)c1` (configuration not stated): the “bacterial growth OD600” value (polymyxin B 1 µg/mL) is 0.999.

Regarding `COc1cccc(CN2CCCC3(CCN(C(=O)c4cc(C)ccc4O)C3)C2)c1` (configuration not stated), the “bacterial growth OD600” value (polymyxin B 1 µg/mL) was 0.751.

For `COCc1noc(-c2ccc(NCc3nc(C)c(C)s3)nc2)n1`, the “bacterial growth OD600” value (polymyxin B 0.75 µg/mL) stood at 0.873.

Regarding `CN1C(=O)CC(CC(=O)N2CCN(c3ncccn3)CC2)(c2ccc(-c3ccccc3)cc2)C1=O` (configuration not stated), the “bacterial growth OD600” value (polymyxin B 0.75 µg/mL) turned out to be 0.799.

`Cc1nn(C)c(C)c1CN(C(=O)c1cc(COc2ccccc2)on1)C1CC1`: the “bacterial growth OD600” value (polymyxin B 0.75 µg/mL) is 0.777.

For `Cc1ccc(OCc2cc(C(=O)NCCc3c[nH]c4ccccc34)no2)cn1`, where the note is “polymyxin B 0.75 µg/mL”, the “bacterial growth OD600” value amounted to 0.284.

Consider `CCOC(=O)N1CCC(NC2CCN(c3cccc(NC(=O)c4ccccc4OC)c3)CC2)CC1`, for which the “bacterial growth OD600” value (polymyxin B 0.75 µg/mL) was found to be 0.861.

For `O=C(CSc1ccccn1)NCc1cccnc1N1CCOCC1`, the “bacterial growth OD600” value (polymyxin B 1 µg/mL) was found to be 0.81.

Consider `CC(C)CN1CCC(CNC(=O)c2cc(NC(=O)C3CCCO3)c3c(c2)nc(C2CCC2)n3C)CC1` (configuration not stated), for which, under “polymyxin B 0.75 µg/mL”, the “bacterial growth OD600” value is 0.811.

Regarding `Cc1cccnc1CC(C)NC(=O)c1cc(Cn2ccnc2C(C)C)[nH]n1` (configuration not stated), the “bacterial growth OD600” value (polymyxin B 1 µg/mL) was 1.01.

`CCNC(=O)c1cn(CCc2ccccc2)cc(C(=O)N(C)Cc2cc3ccccc3s2)c1=O`: the “bacterial growth OD600” value (polymyxin B 0.75 µg/mL) stood at 0.863.

In the case of `O=C(Nc1ccnn1C1CCN(C(=O)C2=CCCC2)CC1)C1CC1`, for the setting “polymyxin B 0.75 µg/mL”, the “bacterial growth OD600” value stood at 0.854.

Turning to `CCOc1cc(CNC(C)c2cnn(-c3cccc(F)c3)c2C)ccc1OC` (configuration not stated), the “bacterial growth OD600” value (polymyxin B 0.75 µg/mL) was determined as 0.794.

`CSCC(=O)NC1CC(=O)N(Cc2cccc3ccccc23)C1` (configuration not stated): where the note is “polymyxin B 1 µg/mL”, the “bacterial growth OD600” value amounted to 0.936.

Consider `Cc1oc(-c2ccccc2NC(=O)CCOc2ccccc2)nc1CNC(=O)CCn1nccc1C`, for which the “bacterial growth OD600” value (polymyxin B 0.75 µg/mL) was determined as 0.005.

On to `OCC1(Cc2ccc(Cl)cc2)CCN(Cc2ccccc2F)CC1`, for which the “bacterial growth OD600” value (polymyxin B 1 µg/mL) was 0.661.

As to `CCC1CN(c2ccc(-c3nc(COc4ccccc4)no3)cn2)CCN1C` (configuration not stated), the “bacterial growth OD600” value (polymyxin B 1 µg/mL) turned out to be 0.565.

On to `COc1ccc([C@@H](C)NC(=O)C2CCCN(c3nc(C)c4ccc(OC)cc4n3)C2)cc1` (some centres not stated), for which the “bacterial growth OD600” value (polymyxin B 0.75 µg/mL) turned out to be 0.54.

As to `CC(=O)Nc1cccc(C(=O)N2CCOC(CCc3ccccc3)C2)c1` (configuration not stated), the “bacterial growth OD600” value (polymyxin B 0.75 µg/mL) turned out to be 0.738.

For `COc1ccc(C(=O)N2CCC(CCC(=O)NC3CCN(Cc4ccccc4)C3)CC2)cc1` (configuration not stated), the “bacterial growth OD600” value (polymyxin B 1 µg/mL) worked out at 0.875.

As for `CCOC(=O)C1(CCCc2ccccc2)CCCN(C(=O)c2ccoc2)C1` (configuration not stated), the “bacterial growth OD600” value (polymyxin B 1 µg/mL) was 1.04.

On to `O=C(NC1CC(=O)N(Cc2ccccc2C(F)(F)F)C1)c1ccc[n+]([O-])c1` (configuration not stated), for which the “bacterial growth OD600” value (polymyxin B 1 µg/mL) came to 0.736.

Regarding `O=C(NCC1CCCCO1)c1coc(COc2ccc(F)cc2)n1` (configuration not stated), the “bacterial growth OD600” value (polymyxin B 1 µg/mL) turned out to be 0.932.

`CCOC(=O)C1(Cc2ccccc2)CCCN(Cc2ccc(OC)c(O)c2)C1` (configuration not stated): the “bacterial growth OD600” value (polymyxin B 1 µg/mL) came to 1.02.

Consider `CN(Cc1ccccc1C(F)(F)F)C(=O)CCC1(Cc2cccc3ccccc23)CCC(=O)N1` (configuration not stated), for which the “bacterial growth OD600” value (polymyxin B 0.75 µg/mL) was determined as 0.

For the compound `C#Cc1cccc(C(=O)N2CCC3(CC2)c2ccccc2[C@@H](NC(=O)C(C)C)[C@@H]3OCCOC)c1`, the “bacterial growth OD600” value (polymyxin B 0.75 µg/mL) was 0.938.
